Where a SMILES comes first, the peptide text is derived from it.
What was measured:
[1] = Langmuir monolayer assay, mixed lipids mimicking E. coli cytoplasmic membrane; settings: initial pressure 20±1 mN/m, 23° C.
[2] = Tryptophan fluorescence and KI quenching, POPC/POPG liposomes; design: key to Accessibility to quencher KI: −: the fluorescence of tryptophan residue could not be quenched by the aqueous quencher KI; +: the fluorescence of tryptophan residue was suppressed by the aqueous quencher KI in a concentration dependent manner; settings: for Emax (nm) (POPC/ POPG): POPC/POPG 7:3 liposomes; for Accessibility to quencher KI / Intensity change (fold): POPC/POPG liposomes; for Emax (nm) (HEPES): tryptophan fluorescence emission maximum in HEPES buffer
[3] = Tryptophan fluorescence and KI quenching, POPC liposomes; design: key to Accessibility to quencher KI: −: the fluorescence of tryptophan residue could not be quenched by the aqueous quencher KI; +: the fluorescence of tryptophan residue was suppressed by the aqueous quencher KI in a concentration dependent manner

SMILES	plateau Δπ (surface pressure change) [1] [mN/m]	Emax (nm) (POPC/ POPG) [2]	Accessibility to quencher KI [2]	Intensity change (fold) [2] [fold]	Emax (nm) (HEPES) [2]	Accessibility to quencher KI [3]	Emax in POPC (nm) [3] [nm]	Intensity change (fold) [3] [fold]	increase of tryptophan fluorescence in POPC liposomes compared to HEPES buffer [3]
CC(C)[C@@H]1NC(=O)[C@H](CCCNC(=N)N)NC(=O)[C@H](Cc2ccccc2)NC(=O)[C@@H](NC(=O)[C@H](Cc2c[nH]c3ccccc23)NC(=O)[C@H](CCCNC(=N)N)NC(=O)[C@@H](N)Cc2ccccc2)CSSC[C@@H](C(=O)N[C@@H](CCCNC(=N)N)C(N)=O)NC(=O)[C@H](CCCCN)NC(=O)[C@H](Cc2ccc(O)cc2)NC(=O)[C@H](CCCNC(=N)N)NC(=O)[C@@H]2CSSC[C@H](NC1=O)C(=O)N[C@@H](Cc1ccc(O)cc1)C(=O)N[C@@H](CCCCN)C(=O)NCC(=O)N[C@@H](CCCNC(=N)N)C(=O)N2 [SEQ ID NO:3, FRWCFRVCYKGRCRYKCR] (HELM PEPTIDE1{F.R.W.C.F.R.V.C.Y.K.G.R.C.R.Y.K.C.R.[am]}$PEPTIDE1,PEPTIDE1,4:R3-17:R3|PEPTIDE1,PEPTIDE1,8:R3-13:R3$$$V2.0)	4.5	338	−	1.9	353	+	350	−0.7	
CC(C)[C@@H]1NC(=O)[C@H](CCCNC(=N)N)NC(=O)[C@H](Cc2ccccc2)NC(=O)[C@@H](NC(=O)[C@H](Cc2c[nH]c3ccccc23)NC(=O)[C@H](CCCNC(=N)N)NC(=O)[C@@H](N)CCCNC(=N)N)CSSC[C@@H](C(=O)N[C@@H](CCCNC(=N)N)C(N)=O)NC(=O)[C@H](CCCCN)NC(=O)[C@H](CCCNC(=N)N)NC(=O)[C@H](Cc2ccc(O)cc2)NC(=O)[C@@H]2CSSC[C@H](NC1=O)C(=O)N[C@@H](Cc1ccc(O)cc1)C(=O)N[C@@H](CCCNC(=N)N)C(=O)NCC(=O)N[C@@H](CCCNC(=N)N)C(=O)N[C@@H](Cc1ccccc1)C(=O)N2 [SEQ ID NO:11, RRWCFRVCYRGRFCYRKCR] (HELM PEPTIDE1{R.R.W.C.F.R.V.C.Y.R.G.R.F.C.Y.R.K.C.R.[am]}$PEPTIDE1,PEPTIDE1,4:R3-18:R3|PEPTIDE1,PEPTIDE1,8:R3-14:R3$$$V2.0)	5.2	342	−	3.7	356	+	354	0.7	
CC(C)[C@@H]1NC(=O)[C@H](CCCNC(=N)N)NC(=O)[C@H](Cc2ccccc2)NC(=O)[C@@H](NC(=O)[C@H](Cc2c[nH]c3ccccc23)NC(=O)[C@H](CCCNC(=N)N)NC(=O)[C@@H](N)CCCNC(=N)N)CSSC[C@@H](C(=O)N[C@@H](CCCNC(=N)N)C(N)=O)NC(=O)[C@H](CCCCN)NC(=O)[C@H](CCCNC(=N)N)NC(=O)[C@H](Cc2ccc(O)cc2)NC(=O)[C@@H]2CSSC[C@H](NC1=O)C(=O)N[C@@H](Cc1ccc(O)cc1)C(=O)N[C@@H](CCCNC(=N)N)C(=O)NCC(=O)N[C@@H](Cc1ccccc1)C(=O)N2 [Polyphemusin I, reference compound] (HELM PEPTIDE1{R.R.W.C.F.R.V.C.Y.R.G.F.C.Y.R.K.C.R.[am]}$PEPTIDE1,PEPTIDE1,4:R3-17:R3|PEPTIDE1,PEPTIDE1,8:R3-13:R3$$$V2.0; N-terminus and C-terminus assumed)	7.4	342	−	1.3	356	+	353	−0.5	
CC(C)[C@@H]1NC(=O)[C@H](CCCNC(=N)N)NC(=O)[C@H](Cc2ccccc2)NC(=O)[C@@H](NC(=O)[C@H](Cc2c[nH]c3ccccc23)NC(=O)[C@H](CCCNC(=N)N)NC(=O)[C@@H](N)CCCNC(=N)N)CSSC[C@@H](C(=O)N[C@@H](CCCNC(=N)N)C(N)=O)NC(=O)[C@H](CCCCN)NC(=O)[C@H](Cc2ccc(O)cc2)NC(=O)[C@H](CCCNC(=N)N)NC(=O)[C@@H]2CSSC[C@H](NC1=O)C(=O)N[C@@H](Cc1ccc(O)cc1)C(=O)N[C@@H](CCCCN)C(=O)NCC(=O)N[C@@H](Cc1ccccc1)C(=O)N2 [SEQ ID NO:4, RRWCFRVCYKGFCRYKCR] (HELM PEPTIDE1{R.R.W.C.F.R.V.C.Y.K.G.F.C.R.Y.K.C.R.[am]}$PEPTIDE1,PEPTIDE1,4:R3-17:R3|PEPTIDE1,PEPTIDE1,8:R3-13:R3$$$V2.0)	4.7	343	−	2.4	354	+	353	1.5	about 50%

Reference: patent publication US6337317B1, “Antimicrobial peptides and methods of use thereof” (priority 2000, dated 2002)
